Data set [1] in a line: general procedure: Fmoc solid-phase peptide synthesis; Fmoc-Cys(Trt) Tentagel resin (RAPP Polymere); H-Cys(Trt)-2-CT-polystyrene resin; HBTU/HOBt/DIPEA; HATU. The following applies: conjugation step.
Data set [2] can be described thus: general procedure: Fmoc solid-phase peptide synthesis; H-Cys(Trt)-2-CT-polystyrene resin; HBTU/HOBt/DIPEA; HATU. As to conditions: whole synthesis.

In data set [1], Bi-ESV6-Asp-Lys-Asp-Cys-Fluorescein had a conjugation yield of 88%. ESV6-Asp-Lys-Asp-Cys-Fluorescein gave a conjugation yield in data set [1] of 19.3%. Consider Bi-ESV6-Asp-Lys-Asp-Cys-COOH, for which the isolated mass in data set [2] came to 36 mg. In addition, in data set [2] (scale of the general procedure 0.18 mmol), the isolated yield was 4.5%.

The values above are taken from patent US20240148916A1 (priority 2021, published 2024).
